This is one part of the list. Small differences around the control level are noise.

The chains behind the UniProt entries cited, without tags or fusion partners. Where a name states a change or a piece, a line headed by the entry shows the natural chain unless it says otherwise.
UniProt P26599: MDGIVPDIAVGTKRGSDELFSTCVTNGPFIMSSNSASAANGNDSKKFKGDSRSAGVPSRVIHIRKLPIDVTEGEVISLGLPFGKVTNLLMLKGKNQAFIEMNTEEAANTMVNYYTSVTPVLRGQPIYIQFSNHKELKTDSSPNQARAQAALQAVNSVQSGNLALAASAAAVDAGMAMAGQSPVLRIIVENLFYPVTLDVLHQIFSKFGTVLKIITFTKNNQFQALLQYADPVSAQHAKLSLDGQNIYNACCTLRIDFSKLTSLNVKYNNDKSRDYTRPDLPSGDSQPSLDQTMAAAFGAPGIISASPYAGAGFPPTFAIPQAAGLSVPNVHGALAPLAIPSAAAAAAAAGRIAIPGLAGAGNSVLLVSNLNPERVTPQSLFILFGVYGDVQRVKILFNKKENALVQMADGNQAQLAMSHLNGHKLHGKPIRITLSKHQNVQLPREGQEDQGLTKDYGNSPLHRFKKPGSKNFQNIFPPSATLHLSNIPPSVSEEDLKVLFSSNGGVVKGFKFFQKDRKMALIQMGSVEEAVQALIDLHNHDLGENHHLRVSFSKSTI
UniProt P19474, whole entry: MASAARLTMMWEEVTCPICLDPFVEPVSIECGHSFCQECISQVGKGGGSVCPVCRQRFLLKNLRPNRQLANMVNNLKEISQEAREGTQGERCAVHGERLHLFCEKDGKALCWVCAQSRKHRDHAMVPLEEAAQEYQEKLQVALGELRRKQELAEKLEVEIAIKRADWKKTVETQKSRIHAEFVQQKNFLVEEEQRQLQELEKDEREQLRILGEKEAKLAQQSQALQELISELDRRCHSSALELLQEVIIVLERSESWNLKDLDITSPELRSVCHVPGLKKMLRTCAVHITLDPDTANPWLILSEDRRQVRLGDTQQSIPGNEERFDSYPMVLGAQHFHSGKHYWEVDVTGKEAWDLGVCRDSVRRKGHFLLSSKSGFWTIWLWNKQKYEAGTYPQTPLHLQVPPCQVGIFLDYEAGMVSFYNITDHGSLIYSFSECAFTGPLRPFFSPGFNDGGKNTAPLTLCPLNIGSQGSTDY
UniProt P28288: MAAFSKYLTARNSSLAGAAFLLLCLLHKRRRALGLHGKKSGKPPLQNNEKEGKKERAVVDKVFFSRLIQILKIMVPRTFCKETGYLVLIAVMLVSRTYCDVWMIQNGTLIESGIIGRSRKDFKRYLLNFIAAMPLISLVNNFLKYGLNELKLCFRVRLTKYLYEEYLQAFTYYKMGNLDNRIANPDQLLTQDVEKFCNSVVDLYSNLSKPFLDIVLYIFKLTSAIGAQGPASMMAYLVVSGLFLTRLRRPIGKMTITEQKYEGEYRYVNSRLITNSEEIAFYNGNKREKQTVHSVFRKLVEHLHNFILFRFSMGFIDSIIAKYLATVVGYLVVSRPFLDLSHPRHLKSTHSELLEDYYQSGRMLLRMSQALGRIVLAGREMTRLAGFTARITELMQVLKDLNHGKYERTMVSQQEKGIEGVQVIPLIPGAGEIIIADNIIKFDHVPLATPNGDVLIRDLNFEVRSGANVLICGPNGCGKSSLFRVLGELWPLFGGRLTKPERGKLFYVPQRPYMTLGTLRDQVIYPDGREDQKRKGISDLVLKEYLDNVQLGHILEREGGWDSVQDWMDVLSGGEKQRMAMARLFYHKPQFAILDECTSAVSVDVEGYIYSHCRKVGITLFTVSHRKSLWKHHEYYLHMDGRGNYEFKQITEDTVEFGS
UniProt P17405: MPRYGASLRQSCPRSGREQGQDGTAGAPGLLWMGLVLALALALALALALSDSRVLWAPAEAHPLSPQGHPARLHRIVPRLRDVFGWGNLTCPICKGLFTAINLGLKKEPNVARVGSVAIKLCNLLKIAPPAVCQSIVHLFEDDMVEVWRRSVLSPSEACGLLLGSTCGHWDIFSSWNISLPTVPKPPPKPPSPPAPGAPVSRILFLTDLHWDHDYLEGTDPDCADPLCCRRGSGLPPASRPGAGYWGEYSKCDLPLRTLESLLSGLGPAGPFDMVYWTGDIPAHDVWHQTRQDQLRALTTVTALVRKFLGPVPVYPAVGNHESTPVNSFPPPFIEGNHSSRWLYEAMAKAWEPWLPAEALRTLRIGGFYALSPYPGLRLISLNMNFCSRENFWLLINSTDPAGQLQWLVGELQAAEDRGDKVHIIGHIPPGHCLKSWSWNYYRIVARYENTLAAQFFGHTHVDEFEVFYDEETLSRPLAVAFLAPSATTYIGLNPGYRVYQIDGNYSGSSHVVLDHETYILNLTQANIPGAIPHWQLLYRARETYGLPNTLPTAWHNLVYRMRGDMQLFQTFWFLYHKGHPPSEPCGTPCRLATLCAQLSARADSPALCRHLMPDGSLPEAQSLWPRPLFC
UniProt P16383: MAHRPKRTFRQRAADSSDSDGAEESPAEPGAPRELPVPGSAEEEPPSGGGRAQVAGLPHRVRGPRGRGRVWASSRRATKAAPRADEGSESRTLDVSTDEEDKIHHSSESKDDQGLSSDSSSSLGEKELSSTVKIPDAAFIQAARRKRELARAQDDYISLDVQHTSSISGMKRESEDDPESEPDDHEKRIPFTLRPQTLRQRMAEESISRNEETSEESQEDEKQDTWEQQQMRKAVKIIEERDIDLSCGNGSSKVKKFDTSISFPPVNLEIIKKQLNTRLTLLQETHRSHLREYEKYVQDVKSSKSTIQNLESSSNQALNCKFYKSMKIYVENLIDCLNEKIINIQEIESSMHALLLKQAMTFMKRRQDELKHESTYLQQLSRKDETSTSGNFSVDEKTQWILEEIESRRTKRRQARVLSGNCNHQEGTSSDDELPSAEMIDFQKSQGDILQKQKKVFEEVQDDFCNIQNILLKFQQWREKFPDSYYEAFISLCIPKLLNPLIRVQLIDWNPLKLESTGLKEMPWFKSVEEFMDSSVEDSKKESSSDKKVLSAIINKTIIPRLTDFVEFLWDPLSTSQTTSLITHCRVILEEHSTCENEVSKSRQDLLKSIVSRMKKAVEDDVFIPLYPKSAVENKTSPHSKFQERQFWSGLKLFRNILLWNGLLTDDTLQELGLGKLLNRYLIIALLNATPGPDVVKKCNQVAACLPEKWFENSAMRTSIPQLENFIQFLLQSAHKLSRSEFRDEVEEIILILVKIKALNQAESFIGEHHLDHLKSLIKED
UniProt P14317: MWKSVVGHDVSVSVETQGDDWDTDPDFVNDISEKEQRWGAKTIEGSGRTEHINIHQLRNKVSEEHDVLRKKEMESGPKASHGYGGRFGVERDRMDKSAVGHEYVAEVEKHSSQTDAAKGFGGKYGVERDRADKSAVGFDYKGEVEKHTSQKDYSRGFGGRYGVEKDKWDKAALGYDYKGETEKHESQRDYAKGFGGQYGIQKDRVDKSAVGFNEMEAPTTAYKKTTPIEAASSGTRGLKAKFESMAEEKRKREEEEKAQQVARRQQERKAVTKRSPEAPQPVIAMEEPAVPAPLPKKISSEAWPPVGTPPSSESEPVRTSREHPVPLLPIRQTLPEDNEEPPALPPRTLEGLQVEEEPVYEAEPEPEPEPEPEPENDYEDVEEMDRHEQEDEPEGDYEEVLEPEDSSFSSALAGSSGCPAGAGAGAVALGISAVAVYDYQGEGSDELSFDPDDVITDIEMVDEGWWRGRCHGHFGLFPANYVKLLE
UniProt P17035: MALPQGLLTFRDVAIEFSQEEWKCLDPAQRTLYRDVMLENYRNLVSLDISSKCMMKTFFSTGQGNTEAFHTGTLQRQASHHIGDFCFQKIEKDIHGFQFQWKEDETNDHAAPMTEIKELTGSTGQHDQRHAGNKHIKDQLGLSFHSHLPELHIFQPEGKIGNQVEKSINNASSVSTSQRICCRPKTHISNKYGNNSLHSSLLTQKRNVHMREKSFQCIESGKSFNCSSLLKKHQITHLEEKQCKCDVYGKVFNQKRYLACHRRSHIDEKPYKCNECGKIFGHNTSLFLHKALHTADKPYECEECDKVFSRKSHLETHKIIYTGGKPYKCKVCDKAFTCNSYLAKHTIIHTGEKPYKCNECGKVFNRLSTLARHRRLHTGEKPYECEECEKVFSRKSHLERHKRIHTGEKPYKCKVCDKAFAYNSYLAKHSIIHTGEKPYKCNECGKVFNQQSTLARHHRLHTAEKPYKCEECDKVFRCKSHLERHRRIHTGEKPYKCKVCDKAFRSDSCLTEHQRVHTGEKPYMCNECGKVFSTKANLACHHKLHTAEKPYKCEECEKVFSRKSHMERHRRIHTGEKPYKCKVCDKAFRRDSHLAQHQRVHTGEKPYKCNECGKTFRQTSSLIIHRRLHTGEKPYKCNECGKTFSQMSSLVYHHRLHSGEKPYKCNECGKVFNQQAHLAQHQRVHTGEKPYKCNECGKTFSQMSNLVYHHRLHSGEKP
UniProt P19544: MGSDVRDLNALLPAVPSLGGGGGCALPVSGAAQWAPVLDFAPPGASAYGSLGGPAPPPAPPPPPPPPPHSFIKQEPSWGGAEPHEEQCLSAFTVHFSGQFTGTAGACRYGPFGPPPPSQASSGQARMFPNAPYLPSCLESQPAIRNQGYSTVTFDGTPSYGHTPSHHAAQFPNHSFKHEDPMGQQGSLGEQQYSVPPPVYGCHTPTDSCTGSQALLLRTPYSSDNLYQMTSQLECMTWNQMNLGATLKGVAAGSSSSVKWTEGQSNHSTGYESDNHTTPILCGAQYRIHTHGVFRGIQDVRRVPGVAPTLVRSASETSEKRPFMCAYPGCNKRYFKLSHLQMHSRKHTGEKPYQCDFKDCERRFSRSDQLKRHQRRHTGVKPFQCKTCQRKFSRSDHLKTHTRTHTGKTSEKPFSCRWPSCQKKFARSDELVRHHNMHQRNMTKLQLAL
UniProt P17480: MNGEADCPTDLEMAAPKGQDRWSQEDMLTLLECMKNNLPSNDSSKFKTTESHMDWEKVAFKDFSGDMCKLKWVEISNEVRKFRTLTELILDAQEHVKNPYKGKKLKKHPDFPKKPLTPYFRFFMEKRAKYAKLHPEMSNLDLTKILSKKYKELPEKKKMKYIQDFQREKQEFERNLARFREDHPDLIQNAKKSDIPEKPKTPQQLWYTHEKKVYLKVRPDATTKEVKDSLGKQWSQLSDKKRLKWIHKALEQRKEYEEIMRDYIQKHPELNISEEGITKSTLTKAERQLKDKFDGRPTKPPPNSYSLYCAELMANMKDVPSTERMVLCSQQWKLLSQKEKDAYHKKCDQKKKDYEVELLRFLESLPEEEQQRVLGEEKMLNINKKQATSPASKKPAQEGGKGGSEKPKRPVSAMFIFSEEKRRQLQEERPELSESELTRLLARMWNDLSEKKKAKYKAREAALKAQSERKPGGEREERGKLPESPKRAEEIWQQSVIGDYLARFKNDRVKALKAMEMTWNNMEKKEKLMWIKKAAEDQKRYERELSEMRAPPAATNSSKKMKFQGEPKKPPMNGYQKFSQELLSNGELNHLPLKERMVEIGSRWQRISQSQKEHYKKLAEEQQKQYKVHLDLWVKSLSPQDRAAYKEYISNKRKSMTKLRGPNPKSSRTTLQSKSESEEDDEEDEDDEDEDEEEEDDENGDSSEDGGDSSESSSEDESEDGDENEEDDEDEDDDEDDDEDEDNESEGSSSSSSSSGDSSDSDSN
UniProt P23109: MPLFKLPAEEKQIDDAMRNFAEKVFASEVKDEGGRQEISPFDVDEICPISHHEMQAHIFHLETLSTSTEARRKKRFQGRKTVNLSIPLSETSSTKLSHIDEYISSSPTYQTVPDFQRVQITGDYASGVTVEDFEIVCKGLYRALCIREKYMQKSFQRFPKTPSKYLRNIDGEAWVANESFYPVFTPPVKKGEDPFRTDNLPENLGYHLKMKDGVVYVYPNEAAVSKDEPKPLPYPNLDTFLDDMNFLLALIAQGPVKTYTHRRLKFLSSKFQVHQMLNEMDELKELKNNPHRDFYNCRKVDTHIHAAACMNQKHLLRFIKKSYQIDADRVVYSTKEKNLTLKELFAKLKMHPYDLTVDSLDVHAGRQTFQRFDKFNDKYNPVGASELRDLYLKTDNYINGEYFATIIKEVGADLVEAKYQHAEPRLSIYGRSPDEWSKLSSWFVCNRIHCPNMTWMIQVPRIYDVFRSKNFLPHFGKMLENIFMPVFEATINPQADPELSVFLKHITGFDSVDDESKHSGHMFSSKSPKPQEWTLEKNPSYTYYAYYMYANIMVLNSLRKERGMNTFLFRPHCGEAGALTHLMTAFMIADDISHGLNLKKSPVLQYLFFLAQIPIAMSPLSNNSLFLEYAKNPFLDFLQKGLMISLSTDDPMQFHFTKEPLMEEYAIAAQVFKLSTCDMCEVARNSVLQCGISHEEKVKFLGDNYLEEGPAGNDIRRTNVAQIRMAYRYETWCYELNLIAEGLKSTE
UniProt P23763, whole entry: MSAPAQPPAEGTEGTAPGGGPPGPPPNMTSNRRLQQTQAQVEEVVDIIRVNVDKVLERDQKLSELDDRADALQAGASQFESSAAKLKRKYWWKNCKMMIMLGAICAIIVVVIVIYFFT
UniProt P26583: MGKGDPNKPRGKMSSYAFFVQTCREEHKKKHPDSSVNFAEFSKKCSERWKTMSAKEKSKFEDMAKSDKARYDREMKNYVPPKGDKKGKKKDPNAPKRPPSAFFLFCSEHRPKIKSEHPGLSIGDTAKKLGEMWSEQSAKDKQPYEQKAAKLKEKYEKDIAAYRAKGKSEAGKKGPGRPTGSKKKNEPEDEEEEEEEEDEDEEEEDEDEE

Compound in this test: CN[C@@H]1C[C@H]2O[C@@](C)([C@@H]1OC)n1c3ccccc3c3c4c(c5c6ccccc6n2c5c31)C(=O)NC4 [staurosporine]
In words: log2 fold change of tryptic peptide abundance, ligand vs vehicle (limited proteolysis) (log2 ratio); higher = more trypsin-susceptible (destabilized). The settings on record: ligand concentration: 20 uM; sample: K562 cleared lysate; digestion: 4 min, 22 C (HT-PELSA RT4min, Orbitrap Astral).
As for “PTBP1 (peptide sequence: EGQEDQGLTK, peptide start residue: 445) (UniProt P26599)”, the log2 fold change was -0.0903.
For “SNRPB (peptide sequence: HMNLILCDCDEFRK, peptide start residue: 37) (UniProt P14678)”, the log2 fold change is -0.201.
In the case of “ZNF708 (peptide sequence: IVQCDKYVK, peptide start residue: 139) (UniProt P17019)”, the log2 fold change came out at 0.13.
On to “UniProt P28066 (peptide sequence: RITSPLMEPSSIEK, peptide start residue: 53)”, for which the log2 fold change was 0.374.
For “TRIM21 (peptide sequence: SVCHVPGLKK, peptide start residue: 271) (UniProt P19474)”, the log2 fold change came out at 0.337.
Take “BTF3 (peptide sequence: QLTEMLPSILNQLGADSLTSLRR, peptide start residue: 142) (UniProt P20290)”: the log2 fold change is -0.371.
On to “ETS1 (peptide sequence: AAVDLKPTLTIIK, peptide start residue: 3) (UniProt P14921)”, for which the log2 fold change is -0.381.
As to “HNRNPL (peptide sequence: MGPPVGGHR, peptide start residue: 345) (UniProt P14866)”, the log2 fold change was 0.208.
For the target “ABCD3 (peptide sequence: LITNSEEIAFYNGNKR, peptide start residue: 272) (UniProt P28288)”, the log2 fold change was -0.144.
As for “SMPD1 (peptide sequence: VGSVAIKLCNLLK, peptide start residue: 114) (UniProt P17405)”, the log2 fold change turned out to be 0.0703.
For “JUNB (peptide sequence: VMTHVSNGCQLLLGVK, peptide start residue: 328) (UniProt P17275)”, the log2 fold change is -0.879.
Take “POLR2E (peptide sequence: QSLVDMAPK, peptide start residue: 116) (UniProt P19388)”: the log2 fold change came out at 0.307.
As to “TPT1 (peptide sequence: YIKDYMK, peptide start residue: 91) (UniProt P13693)”, the log2 fold change worked out at 0.199.
Turning to “CALB2 (peptide sequence: LLPVQENFLLK, peptide start residue: 170) (UniProt P22676)”, the log2 fold change is 0.305.
In the case of “UniProt P16383 (peptide sequence: YLIIALLNATPGPDVVKK, peptide start residue: 681)”, the log2 fold change is 0.321.
As for “PFKL (peptide sequence: LLAHQKPPK, peptide start residue: 387) (UniProt P17858)”, the log2 fold change was 0.901.
With “HK1 (peptide sequence: FNTSDVSAIEK, peptide start residue: 334) (UniProt P19367)”, the log2 fold change is -0.378.
Consider “UniProt P24539 (peptide sequence: RKEQEHMINWVEK, peptide start residue: 209)”, for which the log2 fold change was -0.208.
On to “NCL (peptide sequence: KAAATPAKK, peptide start residue: 88) (UniProt P19338)”, for which the log2 fold change came to 0.278.
In the case of “HCLS1 (peptide sequence: VSEEHDVLR, peptide start residue: 61) (UniProt P14317)”, the log2 fold change worked out at 0.325.
Regarding “ERCC2 (peptide sequence: QMAQPFHR, peptide start residue: 723) (UniProt P18074)”, the log2 fold change turned out to be 0.25.
“ALAD (peptide sequence: AAVLEAMTAFR, peptide start residue: 298) (UniProt P13716)”: the log2 fold change is -0.897.
For the target “H2AFX (peptide sequence: KATQASQEY, peptide start residue: 135) (UniProt P16104)”, the log2 fold change was -0.0717.
As to “UniProt P17035 (peptide sequence: SFQCIESGK, peptide start residue: 214)”, the log2 fold change is -0.287.
Consider “UniProt P19544 (peptide sequence: HHNMHQR, peptide start residue: 434)”, for which the log2 fold change was 0.593.
In the case of “SFPQ (peptide sequence: FAQHGTFEYEYSQR, peptide start residue: 480) (UniProt P23246)”, the log2 fold change is -0.17.
Under “ZNF8 (peptide sequence: EAPVQDQGYK, peptide start residue: 165) (UniProt P17098)” stands -0.693.
Consider “PTPN3 (peptide sequence: KSVNNQYCKK, peptide start residue: 334) (UniProt P26045)”, for which the log2 fold change is -0.0316.
The value for “HOXB9 (peptide sequence: QPGHAEHLEFPSCSFQPK, peptide start residue: 38) (UniProt P17482)” was -0.5; that for “DES (peptide sequence: HLKDEMAR, peptide start residue: 376) (UniProt P17661)” was 0.603; that for “COMT (peptide sequence: LITIEINPDCAAITQR, peptide start residue: 136) (UniProt P21964)” was -0.199.
For “UBTF (peptide sequence: TLTELILDAQEHVKNPYKGK, peptide start residue: 84) (UniProt P17480)”, the log2 fold change was -0.403.
On to “ZNF16 (peptide sequence: TFSQNSVLK, peptide start residue: 245) (UniProt P17020)”, for which the log2 fold change was -0.263.
For “UniProt P23109 (peptide sequence: YNPVGASELR, peptide start residue: 393)”, the log2 fold change was -0.243.
As for “UniProt P17024 (peptide sequence: DVMQETFK, peptide start residue: 31)”, the log2 fold change was -0.106.
The value for “UniProt P23763 (peptide sequence: VNVDKVLER, peptide start residue: 31)” was -0.141; that for “UniProt P25705 (peptide sequence: DNGKHALIIYDDLSKQAVAYR, peptide start residue: 302)” was 0.783.
For the target “UniProt P26367 (peptide sequence: QQMGADGMYDKLR, peptide start residue: 135)”, the log2 fold change is 0.448.
Take “HMGB2 (peptide sequence: SKFEDMAK, peptide start residue: 58) (UniProt P26583)”: the log2 fold change amounted to 1.28.
With “WARS (peptide sequence: EVTDEIVK, peptide start residue: 451) (UniProt P23381)”, the log2 fold change is -0.369.

The values are drawn from the supplement of paper PMC12819154, “High-throughput peptide-centric local stability assay extends protein–ligand identification to membrane proteins, tissues and bacteria” (Nature Structural & Molecular Biology, 2025).
